Construct, isoform or probe ends are uncertain for at least one entry. A weaker result is weaker than the reference pair of the same experiment. At least one verdict rests on a figure or table, not on a statement of the authors.
Target: PTBP1 (Homo sapiens) (UniProt P26599)
Assay: EMSA
Conditions: 0-5 ug PTBP1, 20 pmol RNA, EMSA: 20 mM sodium phosphate pH 7.7, 500 mM NaCl, 20 mM imidazole, 1 mM DTT, 0.1x protease inhibitor, 10 U RNase inhibitor, 15 uL, 28 C, 30 min, 5% TBE-PAGE, recombinant protein, protein details: His tag (pET28a, HisTrap purified), label: 5' 32P, letters put together from the description

Sequences of proteins named here, by UniProt entry; tags and fusion partners are left off. A change or cut given only in a name is not applied to a line headed by its entry.
UniProt P26599: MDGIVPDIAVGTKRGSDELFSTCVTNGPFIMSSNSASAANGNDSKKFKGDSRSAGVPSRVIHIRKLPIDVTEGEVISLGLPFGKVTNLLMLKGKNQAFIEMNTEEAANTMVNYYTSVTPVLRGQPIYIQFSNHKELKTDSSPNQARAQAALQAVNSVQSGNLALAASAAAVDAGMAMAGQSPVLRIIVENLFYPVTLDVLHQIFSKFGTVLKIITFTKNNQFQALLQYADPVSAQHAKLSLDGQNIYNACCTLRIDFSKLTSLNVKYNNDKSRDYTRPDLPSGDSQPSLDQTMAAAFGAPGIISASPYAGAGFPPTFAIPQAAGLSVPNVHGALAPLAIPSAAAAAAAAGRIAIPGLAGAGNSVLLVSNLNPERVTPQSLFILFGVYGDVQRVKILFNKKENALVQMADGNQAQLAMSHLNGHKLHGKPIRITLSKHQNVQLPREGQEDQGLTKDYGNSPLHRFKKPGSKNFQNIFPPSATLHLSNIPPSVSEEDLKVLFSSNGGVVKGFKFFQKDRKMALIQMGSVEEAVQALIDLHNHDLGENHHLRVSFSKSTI

Q: Does “GGGAGUUAAGGACAUAGAAUUGGUCAUG [NACA A allele RNA (oligo T7FwT)]” bind (weaker than U allele)?
A: Result: binds more weakly

Q: Does “GGGAGUUAAGGACAUUGAAUUGGUCAUG [NACA U allele RNA (oligo T7FwA)]” bind (preferred allele (eCLIP U:21 A:0))?
A: Result: binds

Q: Does “GGGCUUCCCAUUUAUCUAUCUCUAUUUA [UBE2E3 C allele RNA]” bind (preferred allele (eCLIP C:21 G:2))?
A: Result: binds

Q: Does “GGGCUUCCCAUUUAUGUAUCUCUAUUUA [UBE2E3 G allele RNA]” bind (weaker than C allele)?
A: Result: binds more weakly

Q: Does “GGGGUAUGGCAUUGUAUCUUCUUUCCAU [CDC7 A allele RNA]” bind (preferred allele (eCLIP G:0 A:22))?
A: Result: binds

Q: Does “GGGGUAUGGCAUUGUGUCUUCUUUCCAU [CDC7 G allele RNA]” bind (weaker than A allele)?
A: Result: binds more weakly

Source: PMC6430814
